# Data taken from the supplement of paper PMC6445147.
# Values scatter widely in this assay.
# B1: human tRNA-Pro; a variant is named by its letters at N, in order (parent)
# chain: GGCTCGTTGGTCTAGNGGTATGATTCTCGCTTAGGGTGCGAGAGGTCCCGGGTTCNNATCCCGGACGAGCCC
# Tests used:
# [1] = variants of: B1; assay: tRNA Pol-III promoter activity, log2 (circRNA frequency / plasmid DNA frequency) (log2 ratio); higher = stronger promoter activity; details: HEK293T; construct: no Pol-II promoter ((-)CMV library)
# [2] = variants of: B1; assay: tRNA 3' processing efficiency (processed reads / all reads, maximum-likelihood estimate) (fraction); higher = more efficient 3' processing; details: HEK293T; construct: no Pol-II promoter ((-)CMV library)
# [3] = variants of: B1; assay: tRNA 5' processing efficiency (processed reads / all reads, maximum-likelihood estimate) (fraction); higher = more efficient 5' processing; details: HEK293T; construct: CMV Pol-II promoter ((+)CMV library, decapped)
Variant,tRNA Pol-III promoter activity (log2) [1],tRNA 3' processing efficiency [2],tRNA 5' processing efficiency [3]
GGCTCGTTGGTCTGGTTGTATGATTCTCGCTTAGGGTGCGAGAGGTCCCGGGTTCTACTCCCGGACGAGCCC,8.11,0.22,
GGCTCGTTGGTCTGGGGGAATGATTCTCGCTTAGGGTGCGAGAGGTCCCGGGTTCTAATCCCGGACGAGCCC,2.86,0.56,
GGCTCGTTGGTCTGGGGGGATGATTCTCGCTTAGGGTGCGAGAGGTCCCGGGTTCTAATCCCGGACGAGCCC,3.25,0.1,
GGCTCGTTGGTCTCTGGGTATGATTCTCGCTTAGGGTGCGAGAGGTCCCGGGTTCTAATCCCGGACGAGCCC,3.94,0.4,
GGCTCGTTGGTCTGGGTGTATGATTCTCGCTTAGGGTGCGAGAGGTCCCGGGTTCTAATCCCGGACGAGCCC,5.08,0.18,
GGCTCGTTGGTCTGGCGGTATGATTCTCGCTTAGGGTGCGAGAGGTCCCGGGTTCTAGTCCCGGACGAGCCC,6.75,0.14,
GGCTCGTTGGTCTGGGGGTATGATTCTCGCTTAGGGTGCGAGAGGTCCCGGGTTCTAAACCCGGACGAGCCC,4.96,0.26,
GGCTCGTTGGTCTGGGGGTATGATTCTCGCTTAGGGTGCGAGAGGTCCCGGGTTCTAACCCCGGACGAGCCC,3.88,0.24,
GGCTCGTTGGTCTCGAGGTATGATTCTCGCTTAGGGTGCGAGAGGTCCCGGGTTCTATTCCCGGACGAGCCC,5.84,0.29,
GGCTCGTTGGTCTGGGGGTGTGATTCTCGCTTAGGGTGCGAGAGGTCCCGGGTTCTAATCCCGGACGAGCCC,4.04,0.79,
GGCTCGTTGGTCTGGGGGAATGATTCTCGCTTAGGGTGCGAGAGGTCCCGGGTTCTACTCCCGGACGAGCCC,5.74,0.14,
GGCTCGTTGGTCTTGAGGTATGATTCTCGCTTAGGGTGCGAGAGGTCCCGGGTTCTAATCCCGGACGAGCCC,2.36,0.25,
GGCTCGTTGGTCTGGAGGTATGATTCTCGCTTAGGGTGCGAGAGGTCCCGGGTTCTAATCCCGGACGAGCCC,3.3,0.26,
GGCTCGTTGGTCTGGGGGTATGATTCTCGCTTAGGGTGCGAGAGGTCCCGGGTTCTAATCCCGGACGAGCCC,0.811,0.54,0.33
GGCTCGTTGGTCTTGGGGTATGATTCTCGCTTAGGGTGCGAGAGGTCCCGGGTTCTAATCCCGGACGAGCCC,3.15,0.36,
GGCTCGTTGGTCTGGGGGTATGATTCTCGCTTAGGGTGCGAGAGGTCCCGGGTTCTATTCCCGGACGAGCCC,3.26,0.4,
GGCTCGTTGGTCTGGGGGTATGATTCTCGCTTAGGGTGCGAGAGGTCCCGGGTTCTACTCCCGGACGAGCCC,3.96,0.2,
GGCTCGTTGGTCTGGGGGTATGATTCTCGCTTAGGGTGCGAGAGGTCCCGGGTTCTAGTCCCGGACGAGCCC,1.94,0.4,
GGCTCGTTGGTCTCGCGGTATGATTCTCGCTTAGGGTGCGAGAGGTCCCGGGTTCTATTCCCGGACGAGCCC,5.53,0.33,

# As a working copy, part of the list above:
Variant,tRNA Pol-III promoter activity (log2) [1],tRNA 3' processing efficiency [2],tRNA 5' processing efficiency [3]
GGCTCGTTGGTCTGGAGGTATGATTCTCGCTTAGGGTGCGAGAGGTCCCGGGTTCTAATCCCGGACGAGCCC,3.3,0.26,
GGCTCGTTGGTCTGGGGGTATGATTCTCGCTTAGGGTGCGAGAGGTCCCGGGTTCTAATCCCGGACGAGCCC,0.811,0.54,0.33
GGCTCGTTGGTCTTGGGGTATGATTCTCGCTTAGGGTGCGAGAGGTCCCGGGTTCTAATCCCGGACGAGCCC,3.15,0.36,
GGCTCGTTGGTCTGGGGGTATGATTCTCGCTTAGGGTGCGAGAGGTCCCGGGTTCTATTCCCGGACGAGCCC,3.26,0.4,
GGCTCGTTGGTCTGGGGGTATGATTCTCGCTTAGGGTGCGAGAGGTCCCGGGTTCTACTCCCGGACGAGCCC,3.96,0.2,
GGCTCGTTGGTCTGGGGGTATGATTCTCGCTTAGGGTGCGAGAGGTCCCGGGTTCTAGTCCCGGACGAGCCC,1.94,0.4,
GGCTCGTTGGTCTCGCGGTATGATTCTCGCTTAGGGTGCGAGAGGTCCCGGGTTCTATTCCCGGACGAGCCC,5.53,0.33,

# Additional entries:

Variant,tRNA Pol-III promoter activity (log2) [1],tRNA 3' processing efficiency [2],tRNA 5' processing efficiency [3]
GGCTCGTTGGTCTCGCAGTATGATTCTCGCTTAGGGTGCGAGAGGTCCCGGGTTCTAATCCCGGACGAGCCC,7.94,0.73,
GGCTCGTTGGTCTGGCGGTATGATTCTCGCTTAGGGTGCGAGAGGTCCCGGGTTCTAATCCCGGACGAGCCC,2.98,0.42,
GGCTCGTTGGTCTTGCGGTATGATTCTCGCTTAGGGTGCGAGAGGTCCCGGGTTCTAATCCCGGACGAGCCC,2.31,0.24,
GGCTCGTTGGTCTGAGGGTATGATTCTCGCTTAGGGTGCGAGAGGTCCCGGGTTCTAATCCCGGACGAGCCC,3.72,0.5,
GGCTCGTTGGTCTCGGGGTATGATTCTCGCTTAGGGTGCGAGAGGTCCCGGGTTCTAACCCCGGACGAGCCC,6.45,0.62,
GGCTCGTTGGTCTGGGGTTATGATTCTCGCTTAGGGTGCGAGAGGTCCCGGGTTCTATTCCCGGACGAGCCC,8.45,0.13,
GGCTCGTTGGTCTGGGGGTATGATTCTCGCTTAGGGTGCGAGAGGTCCCGGGTACTAATCCCGGACGAGCCC,2.43,0.5,
GGCTCGTTGGTCTGGGGGTATGATTCTCGCTTAGGGTGCGAGAGGTCCCGGGTTCTATCCCCGGACGAGCCC,5.93,0.25,
GGCTCGTTGGTCTGGGGGTATGATTCTCGCTTAGGGTGCGAGAGGTCCCGGGTTCTATACCCGGACGAGCCC,4.62,0.67,
GGCTCGTTGGTCTCGGGGCATGATTCTCGCTTAGGGTGCGAGAGGTCCCGGGTTCTAATCCCGGACGAGCCC,6.26,0.4,
GGCTCGTTGGTCTGGAGGTATGATTCTCGCTTAGGGTGCGAGAGGTCCCGGGTTCTAGTCCCGGACGAGCCC,6.25,0.3,
GGCTCGTTGGTCTGGGTGTTTGATTCTCGCTTAGGGTGCGAGAGGTCCCGGGTTCTAATCCCGGACGAGCCC,4.53,0.17,
GGCTCGTTGGTCTGGGGTTATGATTCTCGCTTAGGGTGCGAGAGGTCCCGGGTTCTAATCCCGGACGAGCCC,2.32,0.17,0.2
GGCTCGTTGGTCTGGAGGTATGATTCTCGCTTAGGGTGCGAGAGGTCCCGGGTTCTAACCCCGGACGAGCCC,10.2,0.41,
GGCTCGTTGGTCTGGTGGTATGATTCTCGCTTAGGGTGCGAGAGGTCCCGGGTTCTAATCCCGGACGAGCCC,2.34,0.33,
GGCTCGTTGGTCTCGGGATATGATTCTCGCTTAGGGTGCGAGAGGTCCCGGGTTCTAATCCCGGACGAGCCC,2.93,0.22,
GGCTCGTTGGTCTCGGGTTATGATTCTCGCTTAGGGTGCGAGAGGTCCCGGGTTCTAATCCCGGACGAGCCC,2.16,0.5,
GGCTCGTTGGTCTCGGGGTATGATTCTCGCTTAGGGTGCGAGAGGTCCCGGGTTCTATTCCCGGACGAGCCC,4.51,0.5,
